Results from article PMC9220252.
Positions count from the first letter of the chain named. These are yes or no findings as the source states them, for the method shown. In cells and extracts the contact can be indirect. Some binding calls cover weakened binding; strength is not graded here. One block for each binder: values may come before it.

Sequences of proteins named here, by UniProt entry; tags and fusion partners are left off.
UniProt P14618: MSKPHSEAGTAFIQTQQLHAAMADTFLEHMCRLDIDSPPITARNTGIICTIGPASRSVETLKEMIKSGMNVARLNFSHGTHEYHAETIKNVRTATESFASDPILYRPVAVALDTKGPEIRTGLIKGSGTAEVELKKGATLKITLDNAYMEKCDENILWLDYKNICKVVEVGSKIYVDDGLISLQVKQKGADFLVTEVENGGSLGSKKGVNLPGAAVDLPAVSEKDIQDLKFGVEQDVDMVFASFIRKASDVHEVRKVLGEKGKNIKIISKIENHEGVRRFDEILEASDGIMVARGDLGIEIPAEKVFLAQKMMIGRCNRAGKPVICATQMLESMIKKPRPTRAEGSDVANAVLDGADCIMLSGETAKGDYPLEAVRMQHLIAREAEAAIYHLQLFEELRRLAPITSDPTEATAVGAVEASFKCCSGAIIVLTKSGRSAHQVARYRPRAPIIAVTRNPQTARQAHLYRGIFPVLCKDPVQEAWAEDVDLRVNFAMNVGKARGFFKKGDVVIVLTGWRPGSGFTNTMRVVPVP
UniProt P52480: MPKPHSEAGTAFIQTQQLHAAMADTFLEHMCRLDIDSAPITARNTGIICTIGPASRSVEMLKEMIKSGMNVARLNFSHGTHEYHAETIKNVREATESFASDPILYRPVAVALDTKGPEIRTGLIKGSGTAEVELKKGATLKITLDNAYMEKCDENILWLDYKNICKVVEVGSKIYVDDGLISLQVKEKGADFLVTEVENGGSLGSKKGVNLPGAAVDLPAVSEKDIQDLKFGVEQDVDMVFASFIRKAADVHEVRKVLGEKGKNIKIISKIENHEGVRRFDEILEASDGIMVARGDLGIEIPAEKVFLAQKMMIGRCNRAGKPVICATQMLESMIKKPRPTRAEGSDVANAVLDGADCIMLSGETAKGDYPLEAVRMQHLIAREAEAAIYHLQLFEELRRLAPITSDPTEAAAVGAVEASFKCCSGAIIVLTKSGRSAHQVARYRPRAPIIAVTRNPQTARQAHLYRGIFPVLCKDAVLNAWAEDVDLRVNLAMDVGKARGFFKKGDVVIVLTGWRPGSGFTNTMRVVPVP
UniProt P11980: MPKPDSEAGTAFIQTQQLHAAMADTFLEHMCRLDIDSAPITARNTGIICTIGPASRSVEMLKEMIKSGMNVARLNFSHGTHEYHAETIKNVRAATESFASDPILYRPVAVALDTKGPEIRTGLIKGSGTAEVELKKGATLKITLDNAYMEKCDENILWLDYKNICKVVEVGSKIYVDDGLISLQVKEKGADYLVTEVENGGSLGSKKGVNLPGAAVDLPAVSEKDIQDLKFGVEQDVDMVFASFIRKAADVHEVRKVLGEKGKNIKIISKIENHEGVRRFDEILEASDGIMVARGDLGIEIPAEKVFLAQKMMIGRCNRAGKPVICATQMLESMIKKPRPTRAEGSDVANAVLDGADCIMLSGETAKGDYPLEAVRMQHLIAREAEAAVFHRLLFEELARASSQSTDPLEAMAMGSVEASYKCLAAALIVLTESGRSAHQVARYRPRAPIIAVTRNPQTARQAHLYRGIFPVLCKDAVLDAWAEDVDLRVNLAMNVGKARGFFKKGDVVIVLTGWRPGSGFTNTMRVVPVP

Assays:
[1] = target: Pyruvate kinase M2 (PKM2), HepG2 cells (human (endogenous in HepG2)) (UniProt P14618); assay: co-IP; endogenous proteins immunoprecipitated with specific antibody and protein A/G beads from lysates of HepG2 cells stimulated with insulin (100 nM); SDS-PAGE and Western blotting
[2] = target: Pyruvate kinase M2 (PKM2), HepG2 cells (human (endogenous in HepG2)), P14618; assay: as above; settings: remark: other sources report otherwise
[3] = target: Pyruvate kinase M2 (PKM2), mouse cell lines (mouse (endogenous in Hepa1c1c7 and 4T1)) (UniProt P52480); assay: co-IP; 4T1 cells treated with LPS (10 µg/mL at 4 h); PKM2 immunoprecipitated; Western blotting
[4] = target: Pyruvate kinase M2 (PKM2), mouse cell lines (mouse (endogenous in Hepa1c1c7 and 4T1)) (UniProt P52480); assay: co-IP; immunoprecipitation with PKM2 antibody from lysates of Hepa1c1c7 cells stimulated with insulin (100 nM, indicated time); Western blotting
[5] = target: PKM1, normal rat liver (rat (endogenous in liver)) (UniProt P11980); assay: co-IP; liver of rats treated with insulin (10 U/kg body weight for 2 h); immunoprecipitated with PKM1 antibody, blotted with p-PDHA1 antibody

binding [1]: no binding
B1: PDC E3 subunit (dihydrolipoyl dehydrogenase E3), HepG2 cells (protein, UniProt P09622 36-509)
chain: ADQPIDADVTVIGSGPGGYVAAIKAAQLGFKTVCIEKNETLGGTCLNVGCIPSKALLNNSHYYHMAHGKDFASRGIEMSEVRLNLDKMMEQKSTAVKALTGGIAHLFKQNKVVHVNGYGKITGKNQVTATKADGGTQVIDTKNILIATGSEVTPFPGITIDEDTIVSSTGALSLKKVPEKMVVIGAGVIGVELGSVWQRLGADVTAVEFLGHVGGVGIDMEISKNFQRILQKQGFKFKLNTKVTGATKKSDGKIDVSIEAASGGKAEVITCDVLLVCIGRRPFTKNLGLEELGIELDPRGRIPVNTRFQTKIPNIYAIGDVVAGPMLAHKAEDEGIICVEGMAGGAVHIDYNCVPSVIYTHPEVAWVGKSEEQLKEEGIEYKVGKFPFAANSRAKTNADTDGMVKILGQKSTDRVLGAHILGPGAGEMVNEAALALEYGASCEDIARVCHAHPTLSEAFREANLAASFGKSINF

binding [2]: no binding
B2: PDC E2 subunit (dihydrolipoyl transacetylase E2), HepG2 cells, P10515 87-647 (protein)
chain: SLPPHQKVPLPSLSPTMQAGTIARWEKKEGDKINEGDLIAEVETDKATVGFESLEECYMAKILVAEGTRDVPIGAIICITVGKPEDIEAFKNYTLDSSAAPTPQAAPAPTPAATASPPTPSAQAPGSSYPPHMQVLLPALSPTMTMGTVQRWEKKVGEKLSEGDLLAEIETDKATIGFEVQEEGYLAKILVPEGTRDVPLGTPLCIIVEKEADISAFADYRPTEVTDLKPQVPPPTPPPVAAVPPTPQPLAPTPSAPCPATPAGPKGRVFVSPLAKKLAVEKGIDLTQVKGTGPDGRITKKDIDSFVPSKVAPAPAAVVPPTGPGMAPVPTGVFTDIPISNIRRVIAQRLMQSKQTIPHYYLSIDVNMGEVLLVRKELNKILEGRSKISVNDFIIKASALACLKVPEANSSWMDTVIRQNHVVDVSVAVSTPAGLITPIVFNAHIKGVETIANDVVSLATKAREGKLQPHEFQGGTFTISNLGMFGIKNFSAIINPPQACILAIGASEDKLVPADNEKGFDVASMMSVTLSCDHRVVDGAVGAQWLAEFRKYLEKPITMLL

binding [3]: binds
binding [4]: binds
B3: p-Ser293 PDHA1 (p-PDHA1), mouse cell lines (protein, UniProt P35486 30-390)
chain: FANDATFEIKKCDLHRLEEGPPVTTVLTREDGLKYYRMMQTVRRMELKADQLYKQKIIRGFCHLCDGQEACCVGLEAGINPTDHLITAYRAHGFTFTRGLPVRAILAELTGRRGGCAKGKGGSMHMYAKNFYGGNGIVGAQVPLGAGIALACKYNGKDEVCLTLYGDGAANQGQIFEAYNMAALWKLPCIFICENNRYGMGTSVERAAASTDYYKRGDFIPGLRVDGMDILCVREATKFAAAYCRSGKGPILMELQTYRYHGHSMSDPGVSYRTREEIQEVRSKSDPIMLLKDRMVNSNLASVEELKEIDVEVRKEIEDAAQFATADPEPPLEELGYHIYSSDPPFEVRGANQWIKFKSVS
modifications: phosphoserine at Ser293

binding [5]: no binding
B4: p-Ser293 PDHA1 (p-PDHA1), normal rat liver (protein, UniProt P26284 30-390)
chain: B3 chain with T97N, L100H, P101A
modifications: phosphoserine at Ser293
